PubChem BioAssay AID686943, Drosophila RNAi Screening Center – 2013

- Screen: 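Search across the genome for regulators of signalling from receptor tyrosine kinase to ERK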 (primary screen)
- Cell system: Drosophila S2R+ haemocyte-like cells expressing YFP-tagged ERK (Rolled)
- Reagents: long dsRNA against Drosophila genes
- Challenge: insulin stimulation versus unstimulated cells; dose and duration not given
- Measured: 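Antibody staining for doubly phosphorylated ERK divided by ERK-YFP signal, as plate z-scores, in insulin-treated and untreated cells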
- Direction: replicate 1, z-score of dpERK with insulin: higher = more active ERK per ERK-YFP after insulin
The screen tested about 23,000 reagents; this is a random part of those that have a named target and a result. 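Extra replicates exist only for a retested subset of genes; insulin dose and duration not given; both raised and lowered dpERK matter.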 Not all columns of the deposit are shown. The record does not give: the amount of reagent, the time to read-out.

IFT46 [DRSC02462] — replicate 1, z-score of dpERK with insulin = 0.38
CG6398 [DRSC19992] — replicate 1, z-score of dpERK with insulin = 0.24
Ir7d [DRSC18010] — replicate 1, z-score of dpERK with insulin = -0.21
Miga [DRSC17821] — replicate 1, z-score of dpERK with insulin = 0.32
SMC3 [DRSC20227] — replicate 1, z-score of dpERK with insulin = 0.05
CG12661 [DRSC17864] — replicate 1, z-score of dpERK with insulin = -0.01
Or98b [DRSC16775] — replicate 1, z-score of dpERK with insulin = 0.56
Or98b [DRSC21751] — replicate 1, z-score of dpERK with insulin = -0.16
CrebB [DRSC20232] — replicate 1, z-score of dpERK with insulin = -0.88
fipi [DRSC00465] — replicate 1, z-score of dpERK with insulin = 0.31
CG2111 [DRSC18205] — replicate 1, z-score of dpERK with insulin = -0.26
CG11964 [DRSC14447] — replicate 1, z-score of dpERK with insulin = 0.11
Meltrin [DRSC16274] — replicate 1, z-score of dpERK with insulin = 0.28
Meltrin [DRSC21693] — replicate 1, z-score of dpERK with insulin = 0.91
pip [DRSC11382] — replicate 1, z-score of dpERK with insulin = -1.26
mRpS18C [DRSC16538] — replicate 1, z-score of dpERK with insulin = -0.61
CG31776 [DRSC00716] — replicate 1, z-score of dpERK with insulin = 0.47
GlyRS [DRSC10711] — replicate 1, z-score of dpERK with insulin = -0.37
Gbp1 [DRSC06592] — replicate 1, z-score of dpERK with insulin = -0.18
CG17568 [DRSC02628] — replicate 1, z-score of dpERK with insulin = -0.01
OS9 [DRSC02700] — replicate 1, z-score of dpERK with insulin = -0.65
CG14280 [DRSC14761] — replicate 1, z-score of dpERK with insulin = -0.02
CG4461 [DRSC10423] — replicate 1, z-score of dpERK with insulin = 0.4
eIF3d2 [DRSC15651] — replicate 1, z-score of dpERK with insulin = -0.33
CG15882 [DRSC19735] — replicate 1, z-score of dpERK with insulin = -0.08
CG17270 [DRSC15209] — replicate 1, z-score of dpERK with insulin = 0.29
Pig1 [DRSC18698] — replicate 1, z-score of dpERK with insulin = -0.98
resilin [DRSC05627] — replicate 1, z-score of dpERK with insulin = 0.3
resilin [DRSC06595] — replicate 1, z-score of dpERK with insulin = 0.56
CG32590 [DRSC19594] — replicate 1, z-score of dpERK with insulin = 0.48
CG9289 [DRSC03187] — replicate 1, z-score of dpERK with insulin = 1
CG10958 [DRSC17768] — replicate 1, z-score of dpERK with insulin = 0.1
CG9331 [DRSC03206] — replicate 1, z-score of dpERK with insulin = -0.24
TwdlD [DRSC14738] — replicate 1, z-score of dpERK with insulin = 0.29
CG1552 [DRSC19665] — replicate 1, z-score of dpERK with insulin = 0.02
hoe2 [DRSC00459] — replicate 1, z-score of dpERK with insulin = 0
CG32259 [DRSC08082] — replicate 1, z-score of dpERK with insulin = 0.37
beag [DRSC15296] — replicate 1, z-score of dpERK with insulin = -1.13
TP53INP [DRSC08178] — replicate 1, z-score of dpERK with insulin = 0.69
TP53INP [DRSC22552] — replicate 1, z-score of dpERK with insulin = 0.99

4 successive reagents already listed, quoted:
IFT46 [DRSC02462] — replicate 1, z-score of dpERK with insulin = 0.38
CG6398 [DRSC19992] — replicate 1, z-score of dpERK with insulin = 0.24
Ir7d [DRSC18010] — replicate 1, z-score of dpERK with insulin = -0.21
Miga [DRSC17821] — replicate 1, z-score of dpERK with insulin = 0.32
